Test results from patent US20240390374A1, “MOCETINOSTAT IN COMBINATION WITH CHEMOTHERAPY TO TREAT RHABDOMYOSARCOMA” (The Regents of the University of California, priority 2021, published 2024).
“Also recorded” adds a separate entry of the source. At least one structure is not confirmed: it was looked up by name or label, or the drawing left a doubt.

Key:
[1] = tested on: MYBPH, MYH3, MYL1 and TNNC1; assay: relative expression of skeletal muscle markers in rhabdomyosarcoma cell lines exposed to mocetinostat (FIG. 3); assay type: cell-based; settings: versus vehicle controls; parental, NT, GFP, FOXO1-KO and PAX3-KO lines
[2] = tested on: rhabdomyosarcoma human tumor xenograft models (derived from patients JR and SJCRH40); assay: xenograft models of rhabdomyosarcoma, tumor volume change over time (FIG. 2); assay type: in vivo; settings: compared to a control
[3] = tested on: Rhabdomyosarcoma cell lines; assay: IC50 for mocetinostat across individual cell lines from different sarcoma subtypes (FIG. 1); assay type: cell-based

Nc1ccccc1NC(=O)c1ccc(CNc2nccc(-c3cccnc3)n2)cc1 [mocetinostat]
relative expression of MYBPH, MYH3, MYL1 and TNNC1 (markers of skeletal muscle) [1]: increased relative expression; also recorded: up-regulation | efficacy, tumor volume change over time [2]: efficacy; also recorded: high activity | sensitivity of rhabdomyosarcoma cell lines to mocetinostat ([3]; FIG. 1): highly sensitive | sensitivity compared to other cell lines ([3]; unbiased screening of 600 cell lines including 60 sarcoma cell lines, translocation+ and negative RMS cell lines): higher sensitivity
